For at least one entry, the source does not settle the construct or the ends of the probe. For some of these results: A negative result means that nothing was seen under these conditions. Where a protein sequence is shown, tags need not be part of it.
What was measured:
[1] = biological target: T1, Ara h 2 (Ara-H2 peanut allergen) (Arachis hypogaea) (UniProt Q6PSU2); test: binding assay; conditions: purified native protein, label: biotin, single-stranded DNA
T1 sequence (limits assumed): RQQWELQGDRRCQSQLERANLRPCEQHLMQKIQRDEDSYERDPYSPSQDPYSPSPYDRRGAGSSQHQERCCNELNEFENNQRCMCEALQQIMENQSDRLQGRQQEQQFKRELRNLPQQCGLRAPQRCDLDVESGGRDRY

[2] = biological target: T1, Ara h 2 (Ara-H2 peanut allergen) (Arachis hypogaea); test: activity in cells; conditions: purified native protein, single-stranded DNA

TAGGGAAGAGAAGGACAATGATTTTGGGCGGGTTGAGGTGGGGGAGGAGGAGGTAGTTAGAGTTGACTAGTACATGACCACTTGA [SB3L]
binding result ([1]; ELISA, little binding above background, non-specific control): no binding

CATGGCGGGGGGGGGGGCAGAAGGGGGGGGGGGTGGTTTA [R2-11]
binding result ([1]; ELISA on immobilized Ara-H2, 10 nM biotinylated aptamer, absorbance below R5-24 and R3-21): binds
functional effect of the aptamer ([2]; 5 uM aptamer inhibits degranulation of RBL-2H3 cells induced by crude peanut extract (not purified Ara-H2)): active

CGTGGCGGGGGGGGGGGCAGAAGGGGGGGGGGGTGGATTA [R3-21]
binding result ([1]; ELISA on immobilized Ara-H2, 10 nM biotinylated aptamer, absorbance below R5-24): binds
functional effect of the aptamer ([2]; 5 uM aptamer inhibits Ara-H2/IgE degranulation of RBL-2H3 cells, 37 C, also with crude peanut extract (FIGS. 4-5)): active

TGTAGCGGGGGGGGGGGCAGAAGGGGGGGGGGGTGGATTA [R5-24]
binding result ([1]; ELISA on immobilized Ara-H2, 10 nM biotinylated aptamer, streptavidin-HRP, highest absorbance): binds
functional effect of the aptamer ([2]; 5 uM aptamer inhibits Ara-H2/IgE degranulation of RBL-2H3 cells, 37 C, also with crude peanut extract (FIG. 4)): active

Reference: patent publication US20260258428
